# Laboratory results from PubChem BioAssay AID743266 (National Center for Advancing Translational Sciences (NCATS), 2014).
# The chains behind the UniProt entries cited, without tags or fusion partners. Where a name states a change or a piece, a line headed by the entry shows the natural chain unless it says otherwise.
# UniProt Q03431: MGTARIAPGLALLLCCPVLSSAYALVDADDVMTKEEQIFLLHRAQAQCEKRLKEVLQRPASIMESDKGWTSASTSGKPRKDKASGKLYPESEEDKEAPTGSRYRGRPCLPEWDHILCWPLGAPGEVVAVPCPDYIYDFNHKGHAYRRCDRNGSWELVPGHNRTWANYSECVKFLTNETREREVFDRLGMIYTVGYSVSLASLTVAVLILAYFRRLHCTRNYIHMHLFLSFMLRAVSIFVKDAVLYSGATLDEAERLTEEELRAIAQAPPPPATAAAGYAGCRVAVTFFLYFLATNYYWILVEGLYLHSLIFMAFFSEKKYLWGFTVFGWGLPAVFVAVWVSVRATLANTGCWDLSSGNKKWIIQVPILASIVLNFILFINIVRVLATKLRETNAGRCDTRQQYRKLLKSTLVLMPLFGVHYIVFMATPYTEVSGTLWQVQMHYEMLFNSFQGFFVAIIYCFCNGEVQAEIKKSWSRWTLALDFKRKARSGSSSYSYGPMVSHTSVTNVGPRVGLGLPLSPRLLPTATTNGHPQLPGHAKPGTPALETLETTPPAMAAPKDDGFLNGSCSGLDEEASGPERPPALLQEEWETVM
# Among all 410,000 compounds or so, about 310 (0.076%) were called active. This list was built around the results that the source calls inconclusive (neither active nor inactive); the mix of calls is not that of the screen. Calls come from the whole dose curve; as a rule, active = well fitted activation curve with a large enough effect; inconclusive = small, poorly fitted or top-dose-only effect, or another doubt; inactive = no such curve, though single readings can be large or run the other way. A potency beside an inconclusive call is a rough fit, not a confirmed value.
# Molecular target: Parathyroid hormone/parathyroid hormone-related peptide receptor (Homo sapiens) (UniProt Q03431)
# Test: qHTS for PTHR1 Agonists: Primary Screen; note: nearly all actives have a fitted effect of over 55% in size
# Details: HEK293 GP2 PTHR1 cells, GloSensor cAMP luminescence, 1 h; activation: at 115 µM (top of the series) unless noted; series mostly up to 115 µM
# Outline: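 HEK-293-derived GP2 cells expressing PTHR1 and a GloSensor cAMP reporter, 3,000/well, plated overnight, given luciferin plus IBMX (each 0.5 mM as added) for 1 h at 37 °C, then compound for 1 h at 37 °C. Luminescence was read after 15 min at room temperature.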
# Potency is the fitted concentration of half-maximal effect.
SMILES,outcome,activation,Potency
COc1ccc(NC(=O)CC2C(=O)N(c3cccc(OC)c3)C(=O)N2Cc2ccc3c(c2)OCO3)cc1 (stereo unspecified),inactive,,
COc1cc(C2C(C(=O)Nc3ccccc3)=C(C)Nc3nnnn32)cc(OC)c1OC (stereo unspecified),,inconclusive: -56.6% [activator],
CCCc1nc(SCC(=O)Nc2nc3c(s2)CCCC3)c2ccccc2n1,,,"inconclusive: 44.7 µM [activator, single point]"
Cc1ccccc1C(=O)N/N=C1\SCC(=O)N1Cc1ccco1,inactive,,
Cc1cccc(C(=O)NC2CCN(C(=O)Nc3ccccc3C)CC2)c1,,,"inconclusive: 44.7 µM [activator, partial curve, poor fit]"
CC1=NN(c2ccc(C)cc2C)C(=O)C1C(c1ccccc1)C1C(=O)N(c2ccc(C)cc2C)N=C1C (stereo unspecified),,,"inconclusive: 50.1 µM [activator, single point]"
COc1ccc(-c2ccc(CCC(=O)O)n2CC(=O)Nc2cccc(C(F)(F)F)c2)cc1,,,"inconclusive: 50.1 µM [activator, partial curve, poor fit]"
CCOC(=O)c1ccc(NC(=O)Cn2nnc(-c3ccccc3C)n2)cc1,inactive [at 57.5 µM],,
CN1CCN(c2ccccc2NC(=O)c2ccccc2F)CC1,,,"inconclusive: 79.4 µM [activator, partial curve, poor fit]"
Oc1ccc(-c2nc(=S)[nH][nH]2)cc1,,,"inconclusive: 35.5 µM [activator, single point]"
Cc1cc(C)cc(NC(=O)Cn2cc(C(=O)c3ccccc3)c(=O)c3ccc(C)nc32)c1,,,"inconclusive: 141 µM [activator, single point]"
O=C(O)Cc1ccc(NC(=O)c2cccc(NC(=O)c3ccco3)c2)cc1,,inconclusive: 42.8% [activator],
CCc1noc(-c2ccc(N(C)Cc3ccc(OC)cc3)c([N+](=O)[O-])c2)n1,,inactive: -27.1%,
C#CCOCCOCCOCCNc1nc(N2CCN(C(=O)CCCCCCCCCCNC(=O)[C@@H](CCSC)n3cc(CCO)nn3)CC2)nc(N2CCN(C(=O)CCCCCCCCCCNC(=O)[C@H](CCSC)n3cc(CCO)nn3)CC2)n1,,,"inconclusive: 50.1 µM [activator, partial curve, poor fit]"
CC(=O)c1c(C)n(CC(=O)NCc2ccco2)c2ccccc12,,inconclusive: 33.4% [activator],
CCOc1ccc(CNC(=O)c2cnc3sc(N4CCCCCC4)nn3c2=O)cc1OC,,,"inconclusive: 112 µM [activator, single point]"
Oc1cccc2ccc(/C=C/c3ccc(Br)s3)nc12,,,"inconclusive: 28.2 µM [activator, single point]"
O=C(Nc1cnccn1)c1cccs1,,,"inconclusive: 44.7 µM [activator, single point]"
Cc1ccc(-c2cnc(C(O)c3ccc(Cl)cc3C)[nH]2)cc1 (stereo unspecified),,inactive: -18.6%,
COc1ccccc1NCCC(=O)OCC(=O)Nc1cccc(S(=O)(=O)N(C)C)c1,,,"inconclusive: 70.8 µM [activator, single point]"
CNC(=O)c1snnc1-c1ccccc1,,inconclusive: 8.22% [activator],
Cc1noc(C)c1S(=O)(=O)N1CCCC(C(=O)Nc2ccc(C(C)C)cc2)C1 (stereo unspecified),,inconclusive: -36.9% [activator],
CCOc1ccc(CCNC(=O)C2CCC(CNS(=O)(=O)c3ccc(Cl)cc3)CC2)cc1OCC (stereo unspecified),inactive,,
CC(C)(C)Cc1nnc(NC(=O)c2ccco2)s1,,inconclusive: 35.2% [activator],

# Part of the list above in order of formula weight, largest number first:
SMILES,outcome,activation,Potency
C#CCOCCOCCOCCNc1nc(N2CCN(C(=O)CCCCCCCCCCNC(=O)[C@@H](CCSC)n3cc(CCO)nn3)CC2)nc(N2CCN(C(=O)CCCCCCCCCCNC(=O)[C@H](CCSC)n3cc(CCO)nn3)CC2)n1,,,"inconclusive: 50.1 µM [activator, partial curve, poor fit]"
CCOc1ccc(CCNC(=O)C2CCC(CNS(=O)(=O)c3ccc(Cl)cc3)CC2)cc1OCC (stereo unspecified),inactive,,
COc1ccc(NC(=O)CC2C(=O)N(c3cccc(OC)c3)C(=O)N2Cc2ccc3c(c2)OCO3)cc1 (stereo unspecified),inactive,,
COc1ccc(-c2ccc(CCC(=O)O)n2CC(=O)Nc2cccc(C(F)(F)F)c2)cc1,,,"inconclusive: 50.1 µM [activator, partial curve, poor fit]"
COc1ccccc1NCCC(=O)OCC(=O)Nc1cccc(S(=O)(=O)N(C)C)c1,,,"inconclusive: 70.8 µM [activator, single point]"
Cc1cc(C)cc(NC(=O)Cn2cc(C(=O)c3ccccc3)c(=O)c3ccc(C)nc32)c1,,,"inconclusive: 141 µM [activator, single point]"
COc1cc(C2C(C(=O)Nc3ccccc3)=C(C)Nc3nnnn32)cc(OC)c1OC (stereo unspecified),,inconclusive: -56.6% [activator],
Cc1noc(C)c1S(=O)(=O)N1CCCC(C(=O)Nc2ccc(C(C)C)cc2)C1 (stereo unspecified),,inconclusive: -36.9% [activator],
CCCc1nc(SCC(=O)Nc2nc3c(s2)CCCC3)c2ccccc2n1,,,"inconclusive: 44.7 µM [activator, single point]"
CCc1noc(-c2ccc(N(C)Cc3ccc(OC)cc3)c([N+](=O)[O-])c2)n1,,inactive: -27.1%,
CCOC(=O)c1ccc(NC(=O)Cn2nnc(-c3ccccc3C)n2)cc1,inactive [at 57.5 µM],,
O=C(O)Cc1ccc(NC(=O)c2cccc(NC(=O)c3ccco3)c2)cc1,,inconclusive: 42.8% [activator],
Cc1cccc(C(=O)NC2CCN(C(=O)Nc3ccccc3C)CC2)c1,,,"inconclusive: 44.7 µM [activator, partial curve, poor fit]"
Oc1cccc2ccc(/C=C/c3ccc(Br)s3)nc12,,,"inconclusive: 28.2 µM [activator, single point]"
Cc1ccc(-c2cnc(C(O)c3ccc(Cl)cc3C)[nH]2)cc1 (stereo unspecified),,inactive: -18.6%,
CC(=O)c1c(C)n(CC(=O)NCc2ccco2)c2ccccc12,,inconclusive: 33.4% [activator],
CNC(=O)c1snnc1-c1ccccc1,,inconclusive: 8.22% [activator],
O=C(Nc1cnccn1)c1cccs1,,,"inconclusive: 44.7 µM [activator, single point]"

# Additional structures follow.

SMILES,outcome,activation,Potency
CCOc1ccc(CNC(=O)C2CCN(c3nn4c(=O)cc(C)nc4s3)CC2)cc1,,inconclusive: -95.9% [activator],
Cc1c(C(=O)O)sc2nc(C)n(C)c(=O)c12,,,"inconclusive: 4.47 µM [activator, partial curve, poor fit]"
CN1CCN(S(=O)(=O)c2ccc(NC(=O)c3cccc(F)c3)cc2)CC1,,inconclusive: 47.7% [activator],
Nc1ccc(S(=O)(=O)NN=CC=Cc2ccccc2[N+](=O)[O-])cc1,inactive,,
COc1cccc(NC(=O)C(OC(=O)/C=C/c2ccc3c(c2)OCO3)c2ccccc2)c1 (stereo unspecified),,inactive: -20.4%,
O=C(Nc1ccnn1C1CCN(C(=O)Cc2cccc(Cl)c2)CC1)C1CC1,inactive,,
O=C(NNC(=O)c1cccc2ccccc12)c1ccccc1O,,inconclusive: -47.6% [activator],
CCn1nc(C)c2c(-c3ccccc3)cc(=O)n(C(C)C(=O)NCc3ccc(C)cc3)c21 (stereo unspecified),,inactive: -19.2%,
O=C(OCc1ccccc1)N1CCC2CC1c1cc(Cl)ccc12 (stereo unspecified),,inconclusive: -18.5% [activator],
Cc1ccc(C)c(Nc2nc3nonc3nc2Nc2cccc(C)c2C)c1,,inactive: -83.3%,
CCOC(=O)C1CCCN(C(=O)c2cc3c(OC)c(OC)c(OC)cc3[nH]2)C1 (stereo unspecified),,,"inconclusive: 89.1 µM [activator, single point]"
c1ccc(Nc2nc(Nc3ccccc3)nc(N3CCNCC3)n2)cc1,,,"inconclusive: 25.1 µM [activator, partial curve, poor fit]"
CC(C)(CN1CCN(C(c2ccccc2)c2ccccc2)CC1)NS(=O)(=O)c1ccccc1,,inactive: -16.1%,
O=C(Cn1c(-c2cncs2)nc2ccccc21)NCc1ccccc1,,,"inconclusive: 39.8 µM [activator, partial curve, poor fit]"
CN(CC(=O)Nc1cc(Cl)ccc1-n1cncn1)Cc1ccccc1N1CCOCC1,,inactive: -13%,
CCCCC(NC(=O)COc1cc2c(c3oc(=O)cc(C)c13)CCC(C)(C)O2)C(=O)O (stereo unspecified),,inconclusive: 30.3% [activator],
CCOC(=O)C1=C(CN2CCCCC2)NC(=O)NC1c1ccc(C)cc1 (stereo unspecified),inactive,,
CC(c1cccs1)N(Cc1ccco1)C(=S)Nc1ccc(F)c(Cl)c1 (stereo unspecified),inactive,,
COc1ccc(CN2C(=O)C(CC(=O)NC(c3ccccc3)c3ccccc3)CC(C(=O)N(C)C)=C2C)cc1 (stereo unspecified),,inactive: -28.6%,
O=C(Nc1cccc(C(F)(F)F)c1)c1csc(COCCO)n1,,inactive: -21.5%,
Cc1ccc(S(=O)(=O)N2CCC(=O)N2)cc1,,,"inconclusive: 1.12 µM [activator, partial curve, poor fit]"
CCOC(=O)C1=C(C)NC2=C(C(=O)CC(c3cccs3)C2)C1c1cccs1 (stereo unspecified),inactive,,
O=C(NCc1ccc(Cl)cc1)c1ccncc1,,inactive: -9.29%,
COc1ccc(/C=N/n2c(-c3cc(C)[nH]n3)n[nH]c2=S)cc1,,,"inconclusive: 6.31 µM [activator, full curve, poor fit]"

SMILES,outcome,activation,Potency
CCC(C)(C)NC(=O)C(c1ccc(F)cc1)N(Cc1ccco1)C(=O)c1cnccn1 (stereo unspecified),,,"inconclusive: 44.7 µM [activator, single point]"
O=[N+]([O-])c1cccc(/C=N/n2c(COc3ccccc3)n[nH]c2=S)c1,inactive [at 57.5 µM],,
Cc1cc(=O)[nH]c(N/N=C/c2ccc(O)c(O)c2)n1,inactive,,
O=S1(=O)CCN2C(=N1)SC1=C2CCN(Cc2ccccc2)C1,,,"inconclusive: 39.8 µM [activator, partial curve, poor fit]"
COc1cc(C(O)c2nc(-c3ccccc3OC)cs2)ccc1F (stereo unspecified),,inactive: -7.65%,
O=C(O)C1CCCC[C@H]1C(=O)Nc1ncc([N+](=O)[O-])s1 (stereo partly specified),,,"inconclusive: 89.1 µM [activator, partial curve, poor fit]"
CCOC(=O)c1ccc(NC(=O)CS(=O)(=O)c2cn(CC)c3ccccc23)cc1,,,"inconclusive: 44.7 µM [activator, partial curve, poor fit]"
COc1ccc(S(=O)(=O)N2CCN(S(=O)(=O)c3ccc(C(F)(F)F)cc3)CC2)cc1C,,,"inconclusive: 79.4 µM [activator, single point]"
O=c1[nH]c2cccnc2n1Cc1ccco1,,,"inconclusive: 1.78 µM [activator, partial curve, poor fit]"
O=C(NCc1ccccc1)c1cnc2n(c1=O)CCS2,,inconclusive: 41.3% [activator],
Cc1cccc(N(C(=O)c2cnc3n(c2=O)CCS3)C2CCCCC2)c1,,,"inconclusive: 79.4 µM [activator, partial curve, poor fit]"
NC(=O)C1(S(=O)(=O)c2ccccc2)CCCCC1,,,"inconclusive: 39.8 µM [activator, single point]"
CCSc1nc2c(c(=O)[nH]1)C(C(C)C)C(C#N)=C(N)O2 (stereo unspecified),,,"inconclusive: 79.4 µM [activator, partial curve, poor fit]"
Cc1ccc(S(=O)(=O)CC(O)COc2ccccc2C#N)cc1 (stereo unspecified),inactive,,
CC1=CC(C)(C)NC(=S)N1c1ccccc1,,,"inconclusive: 100 µM [activator, single point]"
COc1ccc(CCNC(=O)c2ccc3c(SCC(=O)O)c4c(nc3c2)CCCC4)cc1OC,,,"inconclusive: 15.8 µM [activator, partial curve]"
Cc1cc(C)n(CC(O)COc2ccc(Cl)cc2Cl)n1 (stereo unspecified),,inactive: -23.6%,
c1ccc(COc2cccc(-c3cc4nc(NCCc5ccncc5)ccn4n3)c2)cc1,,inactive: -70%,
COC(=O)c1c(NC(=O)COc2ccc(Cl)cc2C)sc2c1CCCCC2,,,"inconclusive: 126 µM [activator, single point]"
C=CCn1c(SCC(C)=O)nnc1-c1cc(-c2ccccc2)sc1N,,,"inconclusive: 39.8 µM [activator, single point]"
COc1cccc(NC(=O)C2CCN(S(=O)(=O)c3ccc4[nH]c(=O)oc4c3)CC2)c1,,,"inconclusive: 89.1 µM [activator, partial curve, poor fit]"
CCC(C(=O)N(C)Cc1ccccc1)n1nc(C)c2sc3ccccc3c2c1=O (stereo unspecified),,inactive: -18%,
Cc1cc(C)c(C(=O)N2CCC(N3CCC(C(=O)NC(C)C)CC3)CC2)o1,,inconclusive: 53.6% [activator],
